Measured values published in publication doi:10.1101/2020.07.18.209973.
These are yes or no findings as the source states them, for the method shown. Binding seen in cells or lysates may run through a third protein. Here binding means that the protein was enriched with, or labelled near, the bait; the list need not be complete. For some assays here: Sequences can lack the tags named with a protein.

Tests used:
[1] = target: T1, P. berghei HA3-tagged cGMP-dependent protein kinase (P. berghei); test: affinity purification with mass spectrometry
T1 sequence: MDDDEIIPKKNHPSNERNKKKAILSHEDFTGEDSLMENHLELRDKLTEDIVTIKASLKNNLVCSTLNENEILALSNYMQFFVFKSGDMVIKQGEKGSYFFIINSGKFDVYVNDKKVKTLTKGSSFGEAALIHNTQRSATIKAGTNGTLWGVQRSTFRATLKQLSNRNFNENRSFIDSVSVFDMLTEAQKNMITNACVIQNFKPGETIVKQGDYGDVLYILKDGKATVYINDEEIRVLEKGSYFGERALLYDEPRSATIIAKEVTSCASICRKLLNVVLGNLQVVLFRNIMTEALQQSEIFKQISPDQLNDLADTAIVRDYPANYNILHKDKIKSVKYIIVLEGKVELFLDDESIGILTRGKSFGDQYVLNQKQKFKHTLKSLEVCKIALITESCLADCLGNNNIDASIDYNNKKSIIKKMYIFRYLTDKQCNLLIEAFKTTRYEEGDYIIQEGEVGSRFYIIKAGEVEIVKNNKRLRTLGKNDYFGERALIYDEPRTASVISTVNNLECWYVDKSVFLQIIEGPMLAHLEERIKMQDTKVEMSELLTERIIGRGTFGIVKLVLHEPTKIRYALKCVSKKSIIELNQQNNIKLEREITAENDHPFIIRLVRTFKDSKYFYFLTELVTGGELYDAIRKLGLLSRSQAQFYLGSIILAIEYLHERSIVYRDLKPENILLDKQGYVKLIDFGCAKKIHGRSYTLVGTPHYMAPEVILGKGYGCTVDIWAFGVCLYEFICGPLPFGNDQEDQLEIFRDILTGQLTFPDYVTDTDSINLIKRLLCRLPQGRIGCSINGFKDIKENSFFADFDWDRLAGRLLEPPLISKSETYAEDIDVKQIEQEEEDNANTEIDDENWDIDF

[2] = target: P. falciparum cGMP-dependent protein kinase tagged with GFP (P. falciparum) (UniProt Q8I719); test: affinity purification with mass spectrometry

Substance | binding [1] | binding [2]
P. berghei Important for Calcium Mobilisation 1 (from UniProt A0A509AV38) | binds | 
P. falciparum Important for Calcium Mobilisation 1 (from UniProt Q8I5A6) |  | binds
